For four substances, binding results are on record in PMC9513783.

Sequences of proteins named here, by UniProt entry; tags and fusion partners are left off.
UniProt P04406: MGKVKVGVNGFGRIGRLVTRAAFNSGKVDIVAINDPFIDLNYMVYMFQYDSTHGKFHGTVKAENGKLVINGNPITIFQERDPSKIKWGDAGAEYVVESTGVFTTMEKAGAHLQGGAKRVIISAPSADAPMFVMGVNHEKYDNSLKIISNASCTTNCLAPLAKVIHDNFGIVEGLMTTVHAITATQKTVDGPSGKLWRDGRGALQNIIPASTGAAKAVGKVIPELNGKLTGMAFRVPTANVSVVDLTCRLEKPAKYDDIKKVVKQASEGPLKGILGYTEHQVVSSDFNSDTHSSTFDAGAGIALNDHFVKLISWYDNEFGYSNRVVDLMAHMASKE
UniProt Q92793: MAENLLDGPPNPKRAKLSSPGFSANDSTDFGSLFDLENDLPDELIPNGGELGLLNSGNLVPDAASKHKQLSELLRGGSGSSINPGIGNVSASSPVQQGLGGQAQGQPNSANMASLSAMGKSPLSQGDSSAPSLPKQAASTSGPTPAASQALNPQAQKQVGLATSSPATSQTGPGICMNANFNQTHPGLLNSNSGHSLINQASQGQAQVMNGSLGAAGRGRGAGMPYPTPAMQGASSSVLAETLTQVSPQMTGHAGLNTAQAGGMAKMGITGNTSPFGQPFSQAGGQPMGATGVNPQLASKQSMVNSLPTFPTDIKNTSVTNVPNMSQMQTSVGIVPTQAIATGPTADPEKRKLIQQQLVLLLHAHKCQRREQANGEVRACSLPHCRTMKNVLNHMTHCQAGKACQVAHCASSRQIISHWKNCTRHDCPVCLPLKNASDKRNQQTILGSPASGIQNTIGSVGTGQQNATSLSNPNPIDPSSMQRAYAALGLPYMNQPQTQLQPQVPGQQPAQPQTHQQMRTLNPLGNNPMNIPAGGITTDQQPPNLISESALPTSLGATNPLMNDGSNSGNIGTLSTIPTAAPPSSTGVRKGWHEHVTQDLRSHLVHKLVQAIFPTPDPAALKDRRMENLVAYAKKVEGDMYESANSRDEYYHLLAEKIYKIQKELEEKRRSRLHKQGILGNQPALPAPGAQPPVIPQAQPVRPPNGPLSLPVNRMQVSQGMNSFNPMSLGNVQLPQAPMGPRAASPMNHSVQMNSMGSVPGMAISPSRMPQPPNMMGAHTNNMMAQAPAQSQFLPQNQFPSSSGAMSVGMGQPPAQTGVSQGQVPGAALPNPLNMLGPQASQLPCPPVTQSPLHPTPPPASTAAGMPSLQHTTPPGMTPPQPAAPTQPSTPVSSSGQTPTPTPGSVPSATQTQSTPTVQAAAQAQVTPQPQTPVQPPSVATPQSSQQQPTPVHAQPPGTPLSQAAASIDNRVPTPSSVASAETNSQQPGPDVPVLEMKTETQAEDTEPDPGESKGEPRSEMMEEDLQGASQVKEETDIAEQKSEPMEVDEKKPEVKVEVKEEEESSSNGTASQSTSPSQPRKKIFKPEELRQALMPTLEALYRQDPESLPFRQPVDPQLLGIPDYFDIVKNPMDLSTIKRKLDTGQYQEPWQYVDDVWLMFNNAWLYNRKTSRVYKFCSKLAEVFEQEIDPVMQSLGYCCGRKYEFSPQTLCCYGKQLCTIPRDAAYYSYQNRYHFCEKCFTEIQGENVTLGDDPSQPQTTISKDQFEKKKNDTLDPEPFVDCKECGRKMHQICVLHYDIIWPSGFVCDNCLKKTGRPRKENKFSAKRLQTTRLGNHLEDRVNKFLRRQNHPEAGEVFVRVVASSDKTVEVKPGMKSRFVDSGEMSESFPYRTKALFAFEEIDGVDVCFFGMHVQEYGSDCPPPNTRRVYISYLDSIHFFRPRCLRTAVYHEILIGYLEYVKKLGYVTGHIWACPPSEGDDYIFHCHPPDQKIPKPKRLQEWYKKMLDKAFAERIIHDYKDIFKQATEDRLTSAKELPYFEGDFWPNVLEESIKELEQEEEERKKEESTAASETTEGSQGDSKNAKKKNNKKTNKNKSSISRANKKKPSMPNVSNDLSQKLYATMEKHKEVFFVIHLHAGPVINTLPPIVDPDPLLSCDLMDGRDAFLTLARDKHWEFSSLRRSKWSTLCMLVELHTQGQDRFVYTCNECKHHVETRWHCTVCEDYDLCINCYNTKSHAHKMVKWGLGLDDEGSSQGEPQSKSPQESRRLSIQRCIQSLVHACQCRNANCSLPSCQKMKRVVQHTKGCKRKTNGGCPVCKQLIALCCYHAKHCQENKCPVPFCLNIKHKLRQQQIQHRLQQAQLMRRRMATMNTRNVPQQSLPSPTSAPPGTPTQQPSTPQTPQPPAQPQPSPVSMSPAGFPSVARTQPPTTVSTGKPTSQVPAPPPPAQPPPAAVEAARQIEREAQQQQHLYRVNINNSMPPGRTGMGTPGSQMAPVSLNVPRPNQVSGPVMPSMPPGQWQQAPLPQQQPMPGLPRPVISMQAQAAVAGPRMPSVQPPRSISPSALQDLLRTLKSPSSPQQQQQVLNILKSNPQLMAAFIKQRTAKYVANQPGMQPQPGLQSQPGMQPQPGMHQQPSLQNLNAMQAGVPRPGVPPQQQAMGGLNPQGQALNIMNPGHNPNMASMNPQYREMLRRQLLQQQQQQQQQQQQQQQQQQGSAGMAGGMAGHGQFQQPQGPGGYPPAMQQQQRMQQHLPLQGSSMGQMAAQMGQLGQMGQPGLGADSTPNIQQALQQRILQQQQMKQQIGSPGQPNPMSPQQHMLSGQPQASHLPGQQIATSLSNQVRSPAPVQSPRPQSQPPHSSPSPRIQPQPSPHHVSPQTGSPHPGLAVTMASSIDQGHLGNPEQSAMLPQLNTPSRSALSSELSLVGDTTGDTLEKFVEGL
UniProt O14744: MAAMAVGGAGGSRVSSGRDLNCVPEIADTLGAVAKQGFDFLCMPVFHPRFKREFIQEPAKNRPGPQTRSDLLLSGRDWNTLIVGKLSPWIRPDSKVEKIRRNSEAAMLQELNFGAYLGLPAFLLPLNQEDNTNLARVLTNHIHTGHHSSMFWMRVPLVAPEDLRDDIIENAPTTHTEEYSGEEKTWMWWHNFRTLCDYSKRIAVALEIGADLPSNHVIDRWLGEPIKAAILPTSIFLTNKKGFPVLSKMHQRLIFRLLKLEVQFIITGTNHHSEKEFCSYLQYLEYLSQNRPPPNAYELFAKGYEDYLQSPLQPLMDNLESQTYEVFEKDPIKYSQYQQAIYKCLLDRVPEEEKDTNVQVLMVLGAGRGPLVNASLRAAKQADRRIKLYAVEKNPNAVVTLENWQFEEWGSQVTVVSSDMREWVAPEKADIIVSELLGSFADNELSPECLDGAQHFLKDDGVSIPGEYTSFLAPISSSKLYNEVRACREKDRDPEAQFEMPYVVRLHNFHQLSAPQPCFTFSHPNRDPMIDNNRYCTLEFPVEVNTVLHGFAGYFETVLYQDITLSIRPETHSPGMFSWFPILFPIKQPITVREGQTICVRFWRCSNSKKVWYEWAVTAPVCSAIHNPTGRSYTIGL
UniProt P16220: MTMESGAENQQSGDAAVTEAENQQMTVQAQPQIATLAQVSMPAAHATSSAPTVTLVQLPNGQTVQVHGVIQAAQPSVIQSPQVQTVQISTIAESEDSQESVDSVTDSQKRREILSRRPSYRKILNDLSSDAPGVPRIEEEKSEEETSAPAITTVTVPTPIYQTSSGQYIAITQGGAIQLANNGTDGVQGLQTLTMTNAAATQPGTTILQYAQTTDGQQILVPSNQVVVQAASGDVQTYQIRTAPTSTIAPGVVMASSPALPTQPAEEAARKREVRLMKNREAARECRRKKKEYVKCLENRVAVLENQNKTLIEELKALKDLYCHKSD

Results are given in words; binding and its absence hold for the method and conditions named. In cells and extracts the contact can be indirect. Some results given as binding are weak or reduced against the parent protein; the word gives no strength. Tags and fused reporters may be left off the sequences shown.

In this assay the target is T1, Flag-tagged EWSR1(2-325)-ATF1(66-271) fusion (UniProt Q01844).
T1 sequence: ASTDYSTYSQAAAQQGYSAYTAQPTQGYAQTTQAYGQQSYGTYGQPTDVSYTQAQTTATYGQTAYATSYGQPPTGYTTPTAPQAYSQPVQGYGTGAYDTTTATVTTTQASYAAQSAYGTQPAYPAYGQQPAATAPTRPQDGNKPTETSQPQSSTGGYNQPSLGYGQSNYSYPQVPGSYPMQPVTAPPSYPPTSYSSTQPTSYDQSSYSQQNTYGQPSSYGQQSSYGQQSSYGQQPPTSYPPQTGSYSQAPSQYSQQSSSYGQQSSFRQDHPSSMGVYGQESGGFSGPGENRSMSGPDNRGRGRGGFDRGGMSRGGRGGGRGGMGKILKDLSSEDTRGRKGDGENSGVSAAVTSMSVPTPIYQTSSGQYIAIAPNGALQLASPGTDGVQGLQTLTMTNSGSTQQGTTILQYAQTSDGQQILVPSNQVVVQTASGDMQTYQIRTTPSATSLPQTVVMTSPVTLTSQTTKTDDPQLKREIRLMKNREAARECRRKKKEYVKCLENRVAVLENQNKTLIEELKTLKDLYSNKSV
Briefly: co-IP; Flag-EWSR1-ATF1 expressed in HEK 293T; lysis buffer A (50 mM Tris, 5 mM EDTA, 150 mM NaCl, 1 mM DTT, 0.5% Nonidet P-40, pH 8.0); IP with anti-Flag (M2) or mouse IgG overnight at 4 C, protein A/G agarose; eluted with 1% SDS in PBS; Western blot. On the technique in general: Immunoblotting shows a protein as a band on a membrane.
GAPDH (from UniProt P04406 1-335): the binding entry is on record as “no binding”.

“CREB-binding protein (from UniProt Q92793 1-2442)”: the binding result is recorded as “no binding”.

As for “protein arginine methyltransferase 5 (from UniProt O14744 1-637) (enzyme)”, the binding entry is given as “binds”.

Take “CRE-binding protein 1 (from UniProt P16220 1-327)”: the binding result is “binds”.
